According to patent US20230098111A1, “COMPOSITIONS AND METHODS TO TREAT NEUROLOGICAL DISEASES” (University of Southern California, priority 2020, published 2023):

Tested on: control iNs
Experiment: Survival of control iNs
Source text: Log-rank test, 100 iNs per group. […] Log-rank test, 100 iNs per group. […] Mean+/−s.e.m. Kruskal-Wallis Test. […] Log-rank test, 100 iNs per group. iNs quantified from 3 independent iN conversions per line.

## Nc1ccc(C(=O)Nc2cccc(-c3nc(N4CCOCC4)c4oc5ncccc5c4n3)c2)cn1 [YM201636]
  control iN survival: decreased control iN survival
